Experimental data: PubChem BioAssay AID1053208 (Peter MacCallum Cancer Centre, 2014)

Purpose: 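Synthetic lethal interactions between gene loss and doxorubicin in osteosarcoma cells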 (primary screen)
System: mouse osteosarcoma cells, early-passage culture from an engineered mouse model of fibroblastic bone tumour
Reagents: siRNA pool against mouse genes, 40 nM
Timing: about 120 h (48 h before drug, then 72 h with drug)
Conditions: doxorubicin 100 nM for 72 h, roughly 30-40% inhibitory dose
Measured: 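Viability read as ATP luminescence after 72 h of 100 nM doxorubicin or none, duplicate wells averaged, scaled to non-targeting siRNA, then expressed as robust z-scores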
Reading the numbers: viability z-score with doxorubicin: higher = more viable cells under doxorubicin; viability z-score without drug: higher = more viable cells with knock-down alone
Active means: 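Called active if knock-down leaves viability unchanged without drug (z within -2 to 2) but lowers it with doxorubicin (z at or under -2)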
The whole screen tested about 17,000 reagents; shown is an unselected part. Of all reagents, 788 (4.7%) were called active. 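Calls rest on z-score classes alone; an extra cut-off of viability at most 70% of control was not applied to them.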 Further read-outs or replicates are left out here.

Flnb → combined z-score class: no change with or without drug; viability z-score with doxorubicin: -0.79; viability z-score without drug: 0.84; outcome: inactive
Glod4 → combined z-score class: no change with or without drug; viability z-score with doxorubicin: 0; viability z-score without drug: -0.84; outcome: inactive
Lrfn4 → combined z-score class: no change with or without drug; viability z-score with doxorubicin: -0.67; viability z-score without drug: -0.84; outcome: inactive
Mmp24 → combined z-score class: no change with or without drug; viability z-score with doxorubicin: 0.34; viability z-score without drug: 0.67; outcome: inactive
Oxct2a → combined z-score class: no change with or without drug; viability z-score with doxorubicin: -1.35; viability z-score without drug: 0.17; outcome: inactive
Fhl4 → combined z-score class: no change with or without drug; viability z-score with doxorubicin: -0.11; viability z-score without drug: -1.18; outcome: inactive
A630023P12Rik → combined z-score class: no change with or without drug; viability z-score with doxorubicin: -0.22; viability z-score without drug: -0.84; outcome: inactive
Cyp2j9 → combined z-score class: no change with or without drug; viability z-score with doxorubicin: 0; viability z-score without drug: 0.51; outcome: inactive
Chat → combined z-score class: no change with or without drug; viability z-score with doxorubicin: -0.34; viability z-score without drug: -1.01; outcome: inactive
Clec2h → combined z-score class: no change with or without drug; viability z-score with doxorubicin: -1.8; viability z-score without drug: -0.84; outcome: inactive
Nudt14 → combined z-score class: no change with or without drug; viability z-score with doxorubicin: -0.45; viability z-score without drug: -0.51; outcome: inactive
Aoc2 → combined z-score class: no change with or without drug; viability z-score with doxorubicin: -0.67; viability z-score without drug: -0.84; outcome: inactive

Just “viability z-score without drug”, for 2 of the entries above:
Fhl4	-1.18
A630023P12Rik	-0.84
